These results are taken from the supplement of paper PMC12764529.

A short description of data set [1]: folding stability dG unfold (combined trypsin and chymotrypsin); higher = more stable. The procedure, abridged: (§1)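 Unfolding free energy was derived, per protease or combined, by relating Bayesian-fitted K50 values from sequencing counts to a sequence-predicted unfolded-state K50 and a shared folded-state K50. The underlying digests exposed cysteine-free mini-proteins under 80 residues, in a PA-tagged cDNA display construct, to trypsin and chymotrypsin at 11 threefold-diluted concentrations and to a no-protease condition. A filter kept only designs with AlphaFold2 dimer inter-PAE above 15.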

Data set [2] can be described thus: folding stability dG unfold from chymotrypsin proteolysis; higher = more stable. The procedure, abridged: as §1
The nature of data set [3]: folding stability dG unfold from trypsin proteolysis; higher = more stable. The procedure, abridged: as §1

± gives the half width of the 95% confidence interval. The two proteases of the assay disagree for many of these sequences.

“SAGGSAKKEKEIYIEIKVKVEKLKNGKLKYYSAEEIAELLKELGFEVEIVEIKETDDYIYIKIKVKSAGGSA [r15_225_TrROS_Hall]”: the “folding stability dG unfold” value in data set [1] was 3.33 ± 0.3 kcal/mol; in data set [2], 3.52 ± 0.19 kcal/mol; in data set [3], 1.11 ± 0.1 kcal/mol.

Consider “SAGGSAGGSAGGLERSPDGATVIPIKFEFKIPVTKFDPADGEWEWETMKIKVEAYILIPPSAGGSAGGSAGG [r7_374_TrROS]”, for which the “folding stability dG unfold” value amounted to 4.19 ± 0.22 kcal/mol in data set [1], 4.45 ± 0.12 kcal/mol in data set [2] and 2.36 ± 0.078 kcal/mol in data set [3].

Regarding “SAGGSAVTMKVSLMIEIWFFNPDGQLIGPFWIMIEIEVPVKPVPVPPPPPIDPEEMAKKNGMDPEDSAGGSA [r15_572_TrROS]”, the results for the “folding stability dG unfold” value in data set [1], in data set [2] and in data set [3] were 3.42 ± 0.14 kcal/mol, 3.82 ± 0.08 kcal/mol and 1.65 ± 0.042 kcal/mol, respectively.

In the case of “SAGDEIAELIRERFRKQGLNVEIDVERKPNGGVKLTFYFPEQGWMIEIEVRNGKITDIKIEPFPPEQIKSAG [r5_977_TrROS]”, the “folding stability dG unfold” value in data set [1] was determined as 4.1 ± 0.15 kcal/mol; in data set [2], 4.47 ± 0.096 kcal/mol; in data set [3], 2.19 ± 0.061 kcal/mol.

In the case of “SAGGRIHIPIPLNQAREILKKLAPDGRDVTAEPQGPSKDNVYYTIEFEPPKNGNEVDIEIWIPPPGDSAGGS [r16_486_TrROS]”, the “folding stability dG unfold” value in data set [1] is 0.0968 ± 0.18 kcal/mol; in data set [2], -0.234 ± 0.36 kcal/mol; in data set [3], -0.000485 ± 0.1 kcal/mol.

Turning to “SAGGGKTVEVTIEVPGENAVVYIKVYDKDKPISVFPAEFIPPTGTATFTIDVPEDAEITAEVALPEEASAGG [r13_977_TrMRF]”, the “folding stability dG unfold” value in data set [1] was determined as 0.687 ± 0.091 kcal/mol; in data set [2], 0.904 ± 0.14 kcal/mol; in data set [3] it was 0.106 ± 0.033 kcal/mol.

As to “SAGGSAGGMKVLATTEDGEVYLFDLSEFDLSFEEWLNLGEEELAELLRKAFPEKEITLELVEEPSAGGSAGG [r6_164_TrMRF]”, the “folding stability dG unfold” value in data set [1] turned out to be 3.02 ± 0.077 kcal/mol; in data set [2], 3.3 ± 0.047 kcal/mol; in data set [3] it was 2.5 ± 0.076 kcal/mol.

As for “SAGSVIRLDSITNSPDGLWLKVTYPDGSVVELPLSPDEPVTVSPDTVTITLPDGPVTLPNTDGKTETLLSAG [r5_999_JUSTAS]”, the figures for the “folding stability dG unfold” value in data set [1], in data set [2] and in data set [3] were 0.486 ± 0.048 kcal/mol, -1.11 ± 0.15 kcal/mol and 1.08 ± 0.04 kcal/mol, respectively.

On to “SAGGSAGGSAGGKKKILVLVEVDGKLYLVEAEVEEKDGKLYIKAKVYRIDKKDPGKIEKVSAGGSAGGSAGG [r7_866_TrROS_Hall]”, for which the “folding stability dG unfold” value in data set [1] was 3.73 ± 0.41 kcal/mol; in data set [2], 4.28 ± 0.17 kcal/mol; in data set [3], 1.78 ± 0.07 kcal/mol.

On to “SAGGGDFVEIFRIVRERAAEGHPEVRLADIERELGRPITPEQLAALRDAGLIERLPDGSYVVRIPKDRSAGG [r13_188_TrMRF]”, for which the “folding stability dG unfold” value in data set [1] was found to be 3.59 ± 0.2 kcal/mol; in data set [2], 3.98 ± 0.12 kcal/mol; in data set [3], 1.33 ± 0.049 kcal/mol.

Take “SAGTYIEIKFKLPDGSEKTLVIEIPESENPEEWTEEKAKEIAEEIEKKLKEKGGIEALEVKIFPKEKESAGG [r19_27_JUSTAS]”: the “folding stability dG unfold” value in data set [1] is 3.35 ± 0.12 kcal/mol; in data set [2], 3.87 ± 0.093 kcal/mol; in data set [3] it was 1.04 ± 0.04 kcal/mol.

Turning to “SAGEIIIVDSPEEAKKLAEEKGYKVVIVYDKKTKKVTIYIYKDGKLVKKFEIDLNNPEIKELLKKLGIESAG [r5_458_TrROS_Hall]”, the “folding stability dG unfold” value in data set [1] was 4.67 ± 0.58 kcal/mol; in data set [2], 4.88 ± 0.26 kcal/mol; in data set [3] it was 1.89 ± 0.086 kcal/mol.

Consider “SDIVLVLPNGHEVRIVKTDEKVYIYLPATGRVIPIPKELLEELTPEEIVERLVELAHQLGIPPEPVEVRGSA [r9_1211_TrMRF]”, for which the “folding stability dG unfold” value stood at 2.67 ± 0.096 kcal/mol in data set [1], 3.3 ± 0.074 kcal/mol in data set [2] and 0.975 ± 0.038 kcal/mol in data set [3].

As to “SAGGSAGGSELYLKITIDVPPGATVEEIKEALKKLFPDVEVEVVEENGKLVIYVRVKSEEALKSAGGSAGGS [r20_175_TrROS_Hall]”, the “folding stability dG unfold” value in data set [1] was 3.76 ± 0.091 kcal/mol; in data set [2], 4.19 ± 0.07 kcal/mol; in data set [3], 2 ± 0.058 kcal/mol.

Take “SAGGSAGGSAGDNFKIKIESFNIMRLPDGYVMISIKIEITVGDKPVEITIMIIIPPGAPISAGGSAGGSAGG [r17_352_TrROS]”: the “folding stability dG unfold” value in data set [1] came out at 5.68 ± 0.41 kcal/mol; in data set [2] it was 5.74 ± 0.18 kcal/mol; in data set [3], 4.03 ± 0.15 kcal/mol.

As for “SAGGSAGGSAGGNWVTIWIPFKMTHYRPDPDGKMYPHKHEMPRPITIPPGQATEDALDKISAGGSAGGSAGG [r7_777_TrROS]”, the “folding stability dG unfold” value worked out at 0.595 ± 0.11 kcal/mol in data set [1], 0.762 ± 0.14 kcal/mol in data set [2] and 0.165 ± 0.12 kcal/mol in data set [3].

Consider “SAGGKEKKPIKIEITITKIEYDKENNVITLEYEIRIDGKLIKVKIRFFKDNPNKFVIESIEIFEEGKSAGGS [r16_89_TrROS_Hall]”, for which the “folding stability dG unfold” value in data set [1] stood at 4.53 ± 0.37 kcal/mol; in data set [2], 4.83 ± 0.25 kcal/mol; in data set [3], 2.71 ± 0.12 kcal/mol.

Consider “SAGGSKKPKIEIEFDKKNKTIKIKINGKEFEFKIKKIEIEKIGDGYYKITIELEDGSKYEFIFKIKSAGGSA [r2_268_TrROS_Hall]”, for which the “folding stability dG unfold” value was determined as 4.73 ± 0.51 kcal/mol in data set [1], 5.38 ± 0.31 kcal/mol in data set [2] and 3.06 ± 0.21 kcal/mol in data set [3].

Consider “SAGGSAGGSMKTYTLPNGLRVQLVRVDKKTKTITLKVFDKNGELVEEIEIKVDEPVELLVVYPSAGGSAGGS [r12_960_TrROS_Hall]”, for which the “folding stability dG unfold” value in data set [1] came out at 2.45 ± 0.15 kcal/mol; in data set [2], 2.69 ± 0.05 kcal/mol; in data set [3], 2.09 ± 0.061 kcal/mol.

Take “MYLVRIKIEYKTEDGEKVEKEITLLVEPSEEEAKEKAEELARKIAEELGLSEEEIKKIEVEVVKLGEELEES [r1_159_TrROS_Hall]”: the entries for the “folding stability dG unfold” value in data set [1], in data set [2] and in data set [3] were 4.29 ± 0.15 kcal/mol, 4.37 ± 0.12 kcal/mol and 4.05 ± 0.22 kcal/mol, respectively.

Consider “PGYIIKIKIKYRYKYEREKDPDGETRPRMKPVQREIVINFPPDNLDDLLDELNIPPDYIDRVEIEVMPPGES [r1_351_TrROS]”, for which the entries for the “folding stability dG unfold” value in data set [1], in data set [2] and in data set [3] were 2.17 ± 0.28 kcal/mol, 2.79 ± 0.1 kcal/mol and 0.76 ± 0.097 kcal/mol, respectively.

Take “SAGGSAGGEFTVTVTIEKDEEKGFIRIPISVSLPSSAFVPKTVEFLEFAKTLKENLPELEVDASSAGGSAGG [r6_102_TrMRF]”: the entries for the “folding stability dG unfold” value in data set [1], in data set [2] and in data set [3] were 0.679 ± 0.038 kcal/mol, 0.65 ± 0.075 kcal/mol and 0.609 ± 0.018 kcal/mol, respectively.

Consider “SAGGDYVVTITEEEVEVGGKKYKTLTIKVVKITEVEEVNGKKKVKVEVKEITIKKEDLDKLKELGIKISAGG [r13_670_TrROS_Hall]”, for which the “folding stability dG unfold” value in data set [1] was determined as 2.68 ± 0.35 kcal/mol; in data set [2], 3.41 ± 0.13 kcal/mol; in data set [3], 1.2 ± 0.14 kcal/mol.

Consider “SAGGKPKKTILIPLIVPPGKPESAIKALAEFLEAKGYELERIEPVPVGDRLRLVAIFRKPDGTEIKVGSAGG [r13_421_TrMRF]”, for which the “folding stability dG unfold” value in data set [1] came to 1.78 ± 0.069 kcal/mol; in data set [2], 1.9 ± 0.11 kcal/mol; in data set [3] it was 1.66 ± 0.037 kcal/mol.

Consider “SMGPDEPKLLGEIEIPFPNGKLRVKVYKTEGDKYLIVVETEDSVIPHYVEVKSPEEAEKYAEELIKKLGKSA [r9_758_TrMRF]”, for which the “folding stability dG unfold” value in data set [1] was determined as 3.82 ± 0.097 kcal/mol; in data set [2], 4.29 ± 0.12 kcal/mol; in data set [3], 2.05 ± 0.13 kcal/mol.

For “SAGGMEPVSPEEAAEALRAELLAAHPDLEVEVTVTTTPLPTGALRVDVTFRFYAPPPPVGERRHVVEVPSAG [r5_696_JUSTAS]”, the “folding stability dG unfold” value in data set [1] was 1.77 ± 0.059 kcal/mol; in data set [2], 2.498 ± 0.023 kcal/mol; in data set [3], -0.402 ± 0.07 kcal/mol.
